The campaign covered roughly 410,000 compounds. About 2,000 (0.49%) were called active. Inconclusive means that the source gave no clear call. Such entries were picked first, then a sample of the others. The call rests on the fitted dose curve; tested in HEK293 reporter line. Potencies beside an inconclusive call are fits to weak or partial responses and may not hold up.
Assay: qHTS Assay for Foot and Mouth Disease Virus Antivirals: Primary Screen against the MLPCN compound library; further: nearly all actives have a fitted effect of over 55% in size
Conditions: FMDV antiviral cell-based qHTS; activity, negative = inhibition: at 57.9 µM (top of the series)
Potency means the concentration at half of the fitted maximal effect.

Row | Structure (SMILES) | Potency | activity, negative = inhibition
1 | CCOC(=O)c1c(C)[nH]c(C)c1S(=O)(=O)N(C)CC(=O)Nc1ccc(C)cc1C | inconclusive: 11.2 µM [inhibitor, partial curve] | 
2 | Cc1ccc(NC(=O)c2ccc3c(c2)OCCO3)cc1 | inconclusive: 12.6 µM [inhibitor, partial curve] | 
3 | CC1(C)CC2(C)OC(=N)C1(C#N)C2(C#N)C#N (stereo unspecified) | inconclusive: 22.4 µM [inhibitor, partial curve, poor fit] | 
4 | Cc1sc2ncnc(N(C)Cc3ccco3)c2c1C | inconclusive: 22.4 µM [inhibitor, partial curve, poor fit] | 
5 | C=C1CC2(CC(c3ccccc3)OC(c3ccccc3)C2)OC1=O (stereo unspecified) | inconclusive: 22.4 µM [inhibitor, partial curve, poor fit] | 
6 | COc1cccc(Nc2ncc3nc(-c4cn(C)c5ccccc45)c(=O)n(CCC#N)c3n2)c1 | inconclusive: 12.6 µM [inhibitor, partial curve, poor fit] | 
7 | Brc1ccc2ncnc(NCc3ccco3)c2c1 | inconclusive: 14.1 µM [inhibitor, partial curve, poor fit] | 
8 | Cc1ccc(N(CCCCN2C(=O)c3ccccc3C2=O)C(=O)c2cccc([N+](=O)[O-])c2)cc1 | inconclusive: 31.6 µM [inhibitor, partial curve, poor fit] | 
9 | COC(=O)c1c(-c2cccs2)csc1NC(=O)COc1ccc(C(C)(C)C)cc1 | inconclusive: 3.16 µM [inhibitor, full curve] | 
10 | CCCCc1c(-c2ccccc2OC)ncn1CCc1cccc(OC)c1 | inconclusive: 22.4 µM [inhibitor, partial curve, poor fit] | 
11 | COc1cccc(/C=C2\Oc3ccc(O)cc3C2=O)c1O | inconclusive: 11.2 µM [inhibitor, partial curve, poor fit] | 
12 | O=C(N[C@H]1CCC(=O)N(CCSc2ccc(Br)cc2)CC1)OCc1ccccc1 | inconclusive: 31.6 µM [inhibitor, partial curve, poor fit] | 
13 | CC(C)N=C1SC(CC(=O)Nc2ccccc2)C(=O)N1C(C)C (stereo unspecified) |  | inconclusive: -32.5% [inhibitor]
14 | Cc1c(C)c2ccc(OCc3ccc(C(=O)O)o3)c(C)c2oc1=O | inconclusive: 17.8 µM [inhibitor, partial curve, poor fit] | 
15 | Cn1c(=O)[nH]c(=O)c2c1nc([N+](=O)[O-])n2Cc1ccccc1 | inconclusive: 7.94 µM [inhibitor, full curve, poor fit] | 
16 | COc1ccc(C2(C(=O)N3CCOCC3)CCOCC2)cc1OC | inconclusive: 3.55 µM [inhibitor, full curve] | 
17 | Oc1ccc(-c2n[nH]c(=S)n2-c2ccc3c(c2)OCCO3)c(O)c1 | inconclusive: 2 µM [inhibitor, partial curve, poor fit] | 
18 | O=C(NCc1ccc(F)cc1)C(=O)NCC1OCCN1S(=O)(=O)c1cc(F)ccc1F (stereo unspecified) | inconclusive: 2.24 µM [inhibitor, partial curve, poor fit] | 
19 | Cc1sc2ncnc(NCC(c3ccco3)N(C)C)c2c1C (stereo unspecified) | inconclusive: 22.4 µM [inhibitor, partial curve, poor fit] | 

Row | Structure (SMILES) | Potency | activity, negative = inhibition
20 | O=C1OC(/C=C/c2ccc(Cl)cc2Cl)=NC/1=C\c1cccs1 | inconclusive: 20 µM [inhibitor, single point] | 
21 | O=C(/C=C/c1ccc(F)cc1)c1ccccc1Br | inconclusive: 22.4 µM [inhibitor, partial curve, poor fit] | 
22 | CC(C)(C=O)C1=CC(=O)c2ccccc2C1=O | inconclusive: 35.5 µM [inhibitor, partial curve, poor fit] | 
23 | C[C@H]1COc2cc(N3CC[C@H](O)C3)ccc2S(=O)(=O)N1 | inconclusive: 3.55 µM [inhibitor, partial curve, poor fit] | 
24 | Cc1ccc2nc(SCc3nc4c(cnn4-c4ccccc4)c(=O)[nH]3)[nH]c2c1 | inconclusive: 11.2 µM [inhibitor, partial curve, poor fit] | 
25 | CC1=C(C(=O)OCCNC(=O)c2ccccc2O)C(c2ccccc2[N+](=O)[O-])C(C(=O)OCC2CCCO2)=C(C)N1 (stereo unspecified) | inconclusive: 28.2 µM [inhibitor, partial curve, poor fit] | 
26 | COCc1ccc(C(=O)Nc2cccc(S(=O)(=O)N(C)c3ccccc3)c2)cc1 | active: 15.8 µM | 
27 | CC(C)c1ccc(N2C(=O)CSC23C(=O)N(C)c2ccccc23)cc1 (stereo unspecified) | inconclusive: 8.91 µM [inhibitor, partial curve] | 
28 | O=C(COc1ccc(F)cc1)Nc1ccc2nc(SCC(=O)N3CCOCC3)sc2c1 | active: 25.1 µM | 
29 | CCOC(=O)c1c(C)n(-c2ccccc2)c2ccc(OC(=O)c3cccc(OC)c3OC)cc12 | inconclusive: 39.8 µM [inhibitor, partial curve, poor fit] | 
30 | Cc1ccccc1NC(=O)Cn1cc(C(=O)c2cccs2)c2ccccc21 | inconclusive: 11.2 µM [inhibitor, partial curve] | 
31 | CCOc1ccc(NC(=O)c2ccccc2NC(=O)CNC2CCCC(C)C2C)cc1 (stereo unspecified) | inconclusive: 2.24 µM [inhibitor, full curve] | 
32 | CC(C)(C)OC(=O)N1CCC[C@H]1c1nnc(SCc2cccc(Cl)c2)o1 | inconclusive: 11.2 µM [inhibitor, partial curve] | 
33 | Cc1noc(C)c1NC(=O)N(C)C[C@@H]1Oc2ccc(NS(=O)(=O)c3c(C)noc3C)cc2C(=O)N([C@H](C)CO)C[C@H]1C | inconclusive: 10 µM [inhibitor, partial curve] | 
34 | Cc1ccc(S(=O)(=O)CCc2ccncc2)cc1 | inconclusive: 8.91 µM [inhibitor, partial curve] | 
35 | COC(=O)c1ccc(/C=N/OCC(=O)NCCc2ccc(OC)c(OC)c2)cc1 | inconclusive: 10 µM [inhibitor, partial curve] | 
36 | Cc1c(C(=O)N2CCN(Cc3ccc4c(c3)OCO4)CC2)sc2ncnc(N3CCN(c4ccccc4F)CC3)c12 | inconclusive: 28.2 µM [inhibitor, partial curve, poor fit] | 
37 | COC(=O)c1nn(-c2ccc3c(c2)CCN3C(C)=O)cc1O | inconclusive: 8.91 µM [inhibitor, partial curve, poor fit] | 
38 | COC(=O)[C@]12CCCCC=C1N(Cc1ccc3c(c1)OCO3)C(=O)[C@H](CC(=O)N1CCCCC1)C2 | inconclusive: 0.631 µM [inhibitor, partial curve, poor fit] | 

Row | Structure (SMILES) | Potency | activity, negative = inhibition
39 | CCCc1cc(=O)[nH]c2nnc(SCC(=O)NC3CCCC3)n12 | inconclusive: 35.5 µM [inhibitor, partial curve, poor fit] | 
40 | CC(NC(=O)Cc1cccs1)C(c1cccs1)N1CCN(c2ccccc2F)CC1 (stereo unspecified) | inconclusive: 17.8 µM [inhibitor, single point] | 
41 | CN(Cc1ccccc1)S(=O)(=O)c1nnc(NC(=O)c2cccc(Cl)c2)s1 | inconclusive: 22.4 µM [inhibitor, single point] | 
42 | O=[N+]([O-])c1ccc(C(=Nc2cccc3ccccc23)N2CCOCC2)cc1 | inconclusive: 20 µM [inhibitor, partial curve] | 
43 | O=C(N/N=C/c1cn(-c2cccs2)nc1-c1ccccc1)c1ccccc1O | inconclusive: 20 µM [inhibitor, partial curve, poor fit] | 
44 | C=C(C(=O)c1ccccc1)C(c1ccccc1)C(C)C(=O)c1ccccc1 (stereo unspecified) | inactive | 
45 | CC(C)OCCCN(C)C1CCN(S(=O)(=O)c2ccc(-c3cc(C(F)(F)F)no3)s2)CC1 | inconclusive: 12.6 µM [inhibitor, partial curve] | 
46 | COc1ccc(-c2nnc(SCc3cc(=O)c4cc(C)cc(C)c4[nH]3)n2C)cc1 | inconclusive: 15.8 µM [inhibitor, partial curve, poor fit] | 
47 | O=C(c1ccccc1)C(CCC(CN1CCOCC1)C(=O)c1ccccc1)CN1CCOCC1 (stereo unspecified) | inconclusive: 25.1 µM [inhibitor, partial curve, poor fit] | 
48 | COc1ccc(CNC(=O)C[C@H]2C[C@H](C(=O)N3CCCCC3)[C@@]3(C)c4[nH]c5cc(-c6ccco6)ccc5c4CCN3C2=O)cc1OC |  | inconclusive: -32.3% [inhibitor]
49 | COc1ccc(N2CCN(c3ncnc4c3[nH]c3ccccc34)CC2)cc1 | inconclusive: 3.98 µM [inhibitor, partial curve, poor fit] | 
50 | CN1C(=CC=C2C=C(I)C(=O)C(I)=C2)C(C)(C)c2ccccc21 | inconclusive: 22.4 µM [inhibitor, partial curve, poor fit] | 
51 | O=C(Nc1ccccc1O)c1cc(S(=O)(=O)N2CCOCC2)c(Cl)cc1Cl | inconclusive: 15.8 µM [inhibitor, partial curve, poor fit] | 
52 | Cc1ccccc1NC(=O)c1cc(S(=O)(=O)c2ccccc2)ccc1Cl | inconclusive: 12.6 µM [inhibitor, partial curve, poor fit] | 
53 | COc1ccccc1N1CCN(C(=O)COc2ccc(C)cc2Br)CC1 | inconclusive: 28.2 µM [inhibitor, partial curve, poor fit] | 
54 | COC(=O)c1[nH]c2cc(OC)ccc2c1NC(=O)CN1CCN(c2cccc(C)c2)C(C)C1 (stereo unspecified) | inactive | 
55 | O=C(NCc1ccc(Cl)cc1)c1ccc(CSc2nc3ccncc3[nH]2)cc1 | inconclusive: 12.6 µM [inhibitor, single point] | 
56 | COC(=O)c1nn(-c2ccc(-c3ccccc3)cc2)cc1O | inconclusive: 11.2 µM [inhibitor, single point] | 

Single records, as listed above.
CC(C)OCCCN(C)C1CCN(S(=O)(=O)c2ccc(-c3cc(C(F)(F)F)no3)s2)CC1 in the list: Potency: inconclusive: 12.6 µM [inhibitor, partial curve]
COc1ccc(CNC(=O)C[C@H]2C[C@H](C(=O)N3CCCCC3)[C@@]3(C)c4[nH]c5cc(-c6ccco6)ccc5c4CCN3C2=O)cc1OC in the list: activity, negative = inhibition: inconclusive: -32.3% [inhibitor]
COc1ccc(-c2nnc(SCc3cc(=O)c4cc(C)cc(C)c4[nH]3)n2C)cc1 in the list: Potency: inconclusive: 15.8 µM [inhibitor, partial curve, poor fit]
COc1ccc(N2CCN(c3ncnc4c3[nH]c3ccccc34)CC2)cc1 in the list: Potency: inconclusive: 3.98 µM [inhibitor, partial curve, poor fit]

— PubChem BioAssay AID1347131 (National Center for Advancing Translational Sciences (NCATS), 2019)
